Reference: paper PMC4749557
These are yes or no findings as the source states them, for the method shown. Binding seen in cells or lysates may run through a third protein. Sequences can lack the tags named with a protein.

Sequences of proteins named here, by UniProt entry; tags and fusion partners are left off.
UniProt Q80U70: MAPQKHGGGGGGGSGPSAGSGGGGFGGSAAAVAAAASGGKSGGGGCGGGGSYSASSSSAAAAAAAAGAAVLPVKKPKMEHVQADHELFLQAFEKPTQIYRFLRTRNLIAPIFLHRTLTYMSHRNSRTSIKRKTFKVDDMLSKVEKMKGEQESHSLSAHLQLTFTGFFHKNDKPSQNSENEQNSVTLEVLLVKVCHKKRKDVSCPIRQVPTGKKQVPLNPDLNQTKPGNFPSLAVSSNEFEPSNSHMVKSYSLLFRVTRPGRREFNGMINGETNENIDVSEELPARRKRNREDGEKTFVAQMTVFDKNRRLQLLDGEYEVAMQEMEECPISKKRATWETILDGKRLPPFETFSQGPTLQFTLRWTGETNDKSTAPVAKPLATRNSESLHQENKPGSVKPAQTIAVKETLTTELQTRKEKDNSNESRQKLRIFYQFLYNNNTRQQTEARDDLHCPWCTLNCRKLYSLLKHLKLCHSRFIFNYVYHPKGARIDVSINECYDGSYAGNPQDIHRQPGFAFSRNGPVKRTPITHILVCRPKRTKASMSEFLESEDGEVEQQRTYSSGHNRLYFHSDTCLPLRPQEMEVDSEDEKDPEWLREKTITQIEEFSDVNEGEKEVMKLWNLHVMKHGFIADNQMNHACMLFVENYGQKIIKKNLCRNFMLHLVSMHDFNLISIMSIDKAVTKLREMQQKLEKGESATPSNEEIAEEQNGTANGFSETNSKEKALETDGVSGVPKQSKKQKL

Target: T1, FLAG–HA tagged Prdm14 (FH-Prdm14), stably expressed in mESCs (mouse) (UniProt E9Q3T6)
T1 sequence: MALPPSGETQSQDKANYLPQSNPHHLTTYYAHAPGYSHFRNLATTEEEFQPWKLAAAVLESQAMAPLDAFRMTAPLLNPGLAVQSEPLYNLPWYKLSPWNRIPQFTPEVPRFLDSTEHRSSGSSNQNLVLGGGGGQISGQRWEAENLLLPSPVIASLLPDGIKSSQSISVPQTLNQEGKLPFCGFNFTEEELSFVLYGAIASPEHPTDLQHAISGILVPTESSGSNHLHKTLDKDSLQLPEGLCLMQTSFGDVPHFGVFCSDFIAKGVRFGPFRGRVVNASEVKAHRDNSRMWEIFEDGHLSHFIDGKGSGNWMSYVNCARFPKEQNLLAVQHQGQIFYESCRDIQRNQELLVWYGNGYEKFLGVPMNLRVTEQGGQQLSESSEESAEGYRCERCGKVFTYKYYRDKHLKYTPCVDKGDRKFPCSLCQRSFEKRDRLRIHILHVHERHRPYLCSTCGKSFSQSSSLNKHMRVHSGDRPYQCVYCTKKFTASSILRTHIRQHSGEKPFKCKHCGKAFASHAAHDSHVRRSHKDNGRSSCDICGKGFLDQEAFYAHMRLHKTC
Test: pull-down; proteins co-precipitated with Prdm14 that was captured by monobody on M280 streptavidin dynabeads from FH-Prdm14 or wt mESC extracts; Western blot

In the case of “Suz12, endogenous in mESCs (from UniProt Q80U70 1-741)”, the binding is reported as “no binding”.
